According to ChEMBL document CHEMBL1143626, “Morphiceptin analogues containing a dipeptide mimetic structure: an investigation on the bioactive topology at the mu-receptor” (J Med Chem, 2005):

Species on record: Cavia porcellus
Assay: Inhibition of isolated guinea pig ileum contraction induced by electrical stimulation
Type: functional
Outline: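 Electrical field stimulation was applied after 30-40 min equilibration: train 100 ms, pulse width 1 ms, pulse interval 10 ms, supramaximal 20 V. Compounds were added cumulatively at 3-fold steps (0.1 nM to 1 µM), with parallel runs in 10 nM naloxone. Isotonic tension was recorded as % of control […]. Efficacy is the maximal inhibition; EC50 is the half-maximal concentration. Mean ± SEM, 4-6 experiments.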

SMILES: CN1CC[C@]23c4c5ccc(O)c4O[C@H]2[C@@H](O)C=C[C@H]3[C@H]1C5 [MORPHINE]
- EC50: 127 nM
